The source of these data is the supplement of paper PMC12067093, “Discovery and optimisation of a covalent ligand for TRIM25 and its application to targeted protein ubiquitination” (Chemical Science, 2025).

Protein sequences, listed by entry. Tags and fused reporters are not part of them. Lines headed by an entry give the natural chain unless they say otherwise; changes in a name come on top.
UniProt Q86VI3: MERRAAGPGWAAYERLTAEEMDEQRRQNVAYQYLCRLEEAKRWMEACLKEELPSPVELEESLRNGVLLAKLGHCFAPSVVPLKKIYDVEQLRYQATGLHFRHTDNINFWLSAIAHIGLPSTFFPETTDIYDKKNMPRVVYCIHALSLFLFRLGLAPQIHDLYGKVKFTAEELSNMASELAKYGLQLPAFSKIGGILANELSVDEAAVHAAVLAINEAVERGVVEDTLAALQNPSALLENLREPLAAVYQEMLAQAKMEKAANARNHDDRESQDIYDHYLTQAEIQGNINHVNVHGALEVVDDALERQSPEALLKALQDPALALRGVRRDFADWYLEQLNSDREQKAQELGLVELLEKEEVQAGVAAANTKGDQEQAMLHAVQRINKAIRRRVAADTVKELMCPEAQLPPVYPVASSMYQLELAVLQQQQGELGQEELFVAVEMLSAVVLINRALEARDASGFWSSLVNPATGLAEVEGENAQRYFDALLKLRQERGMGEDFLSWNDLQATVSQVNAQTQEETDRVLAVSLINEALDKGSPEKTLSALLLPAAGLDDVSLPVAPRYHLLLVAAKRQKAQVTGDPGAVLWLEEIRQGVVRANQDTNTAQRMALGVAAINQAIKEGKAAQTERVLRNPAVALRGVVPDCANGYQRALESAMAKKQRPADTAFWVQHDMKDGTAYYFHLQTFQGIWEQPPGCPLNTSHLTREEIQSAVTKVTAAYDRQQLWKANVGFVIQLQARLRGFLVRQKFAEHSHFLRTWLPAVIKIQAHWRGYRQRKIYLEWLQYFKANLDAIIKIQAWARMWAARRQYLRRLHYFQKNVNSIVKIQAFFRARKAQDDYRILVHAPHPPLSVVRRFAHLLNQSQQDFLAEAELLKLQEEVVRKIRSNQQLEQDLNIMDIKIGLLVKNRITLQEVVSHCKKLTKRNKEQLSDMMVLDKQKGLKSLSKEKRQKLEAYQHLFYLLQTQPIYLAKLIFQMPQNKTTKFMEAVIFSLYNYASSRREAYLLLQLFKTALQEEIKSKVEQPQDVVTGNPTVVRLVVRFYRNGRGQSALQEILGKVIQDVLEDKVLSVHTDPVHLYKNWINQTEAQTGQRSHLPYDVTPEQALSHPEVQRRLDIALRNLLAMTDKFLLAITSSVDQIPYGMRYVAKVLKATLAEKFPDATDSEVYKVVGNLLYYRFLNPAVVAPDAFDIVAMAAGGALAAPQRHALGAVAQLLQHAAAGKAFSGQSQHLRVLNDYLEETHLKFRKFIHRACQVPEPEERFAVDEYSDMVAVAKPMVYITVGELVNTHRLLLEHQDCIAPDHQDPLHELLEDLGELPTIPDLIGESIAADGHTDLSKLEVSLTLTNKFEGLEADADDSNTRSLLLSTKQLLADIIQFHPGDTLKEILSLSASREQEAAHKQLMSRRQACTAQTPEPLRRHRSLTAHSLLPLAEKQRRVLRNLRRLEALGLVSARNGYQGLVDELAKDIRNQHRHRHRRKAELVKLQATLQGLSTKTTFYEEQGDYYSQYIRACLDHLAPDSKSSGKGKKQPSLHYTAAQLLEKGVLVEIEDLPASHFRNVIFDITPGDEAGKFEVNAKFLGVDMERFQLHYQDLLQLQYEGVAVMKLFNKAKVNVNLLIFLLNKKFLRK
UniProt Q6P9B9, whole entry, looked up: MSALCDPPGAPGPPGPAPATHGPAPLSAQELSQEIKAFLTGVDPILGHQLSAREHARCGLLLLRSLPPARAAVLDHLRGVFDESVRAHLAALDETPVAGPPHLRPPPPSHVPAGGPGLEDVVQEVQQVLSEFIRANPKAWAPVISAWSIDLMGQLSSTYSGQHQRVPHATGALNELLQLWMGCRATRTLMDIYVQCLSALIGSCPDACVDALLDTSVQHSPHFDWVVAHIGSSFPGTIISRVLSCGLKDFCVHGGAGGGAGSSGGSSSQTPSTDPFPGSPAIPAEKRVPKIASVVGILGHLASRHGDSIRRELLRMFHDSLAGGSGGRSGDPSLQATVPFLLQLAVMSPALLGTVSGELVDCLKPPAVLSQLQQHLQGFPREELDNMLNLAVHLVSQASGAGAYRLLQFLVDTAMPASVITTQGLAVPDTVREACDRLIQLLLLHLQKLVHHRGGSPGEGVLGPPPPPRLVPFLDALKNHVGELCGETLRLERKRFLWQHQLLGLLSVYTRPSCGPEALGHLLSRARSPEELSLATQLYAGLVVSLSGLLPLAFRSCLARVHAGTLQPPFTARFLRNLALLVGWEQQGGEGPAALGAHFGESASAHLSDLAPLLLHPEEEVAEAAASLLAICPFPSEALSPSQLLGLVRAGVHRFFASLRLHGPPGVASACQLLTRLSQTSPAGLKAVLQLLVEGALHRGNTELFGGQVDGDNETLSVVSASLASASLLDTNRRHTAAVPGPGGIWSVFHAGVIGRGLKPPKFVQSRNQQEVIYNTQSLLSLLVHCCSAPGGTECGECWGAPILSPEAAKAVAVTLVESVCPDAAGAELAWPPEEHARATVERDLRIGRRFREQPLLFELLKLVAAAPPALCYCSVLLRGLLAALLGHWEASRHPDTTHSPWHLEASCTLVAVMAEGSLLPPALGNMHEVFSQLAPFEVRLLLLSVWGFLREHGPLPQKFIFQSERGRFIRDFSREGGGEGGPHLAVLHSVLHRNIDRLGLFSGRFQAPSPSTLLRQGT
UniProt P05556, whole entry, looked up: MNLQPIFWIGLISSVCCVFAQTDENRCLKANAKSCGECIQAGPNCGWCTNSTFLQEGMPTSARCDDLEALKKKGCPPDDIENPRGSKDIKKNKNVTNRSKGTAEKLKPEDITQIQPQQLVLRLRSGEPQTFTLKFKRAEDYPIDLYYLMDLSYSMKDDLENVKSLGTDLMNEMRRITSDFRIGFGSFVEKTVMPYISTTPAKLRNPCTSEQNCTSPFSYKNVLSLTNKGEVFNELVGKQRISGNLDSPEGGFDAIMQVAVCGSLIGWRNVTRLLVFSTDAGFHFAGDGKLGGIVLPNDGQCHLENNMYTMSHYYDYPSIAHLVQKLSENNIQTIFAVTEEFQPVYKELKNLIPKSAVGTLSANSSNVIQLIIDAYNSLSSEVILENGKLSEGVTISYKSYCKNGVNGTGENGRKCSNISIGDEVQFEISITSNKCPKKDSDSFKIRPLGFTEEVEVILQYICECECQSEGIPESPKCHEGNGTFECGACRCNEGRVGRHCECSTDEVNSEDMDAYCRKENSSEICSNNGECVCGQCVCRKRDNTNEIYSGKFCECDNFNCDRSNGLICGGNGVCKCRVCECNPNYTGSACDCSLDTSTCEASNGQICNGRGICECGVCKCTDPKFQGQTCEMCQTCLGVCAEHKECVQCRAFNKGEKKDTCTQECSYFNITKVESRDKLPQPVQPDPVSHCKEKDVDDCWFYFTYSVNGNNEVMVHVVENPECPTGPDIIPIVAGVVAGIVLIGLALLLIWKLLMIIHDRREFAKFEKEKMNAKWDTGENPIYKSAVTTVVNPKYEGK
UniProt P05107, whole entry, looked up: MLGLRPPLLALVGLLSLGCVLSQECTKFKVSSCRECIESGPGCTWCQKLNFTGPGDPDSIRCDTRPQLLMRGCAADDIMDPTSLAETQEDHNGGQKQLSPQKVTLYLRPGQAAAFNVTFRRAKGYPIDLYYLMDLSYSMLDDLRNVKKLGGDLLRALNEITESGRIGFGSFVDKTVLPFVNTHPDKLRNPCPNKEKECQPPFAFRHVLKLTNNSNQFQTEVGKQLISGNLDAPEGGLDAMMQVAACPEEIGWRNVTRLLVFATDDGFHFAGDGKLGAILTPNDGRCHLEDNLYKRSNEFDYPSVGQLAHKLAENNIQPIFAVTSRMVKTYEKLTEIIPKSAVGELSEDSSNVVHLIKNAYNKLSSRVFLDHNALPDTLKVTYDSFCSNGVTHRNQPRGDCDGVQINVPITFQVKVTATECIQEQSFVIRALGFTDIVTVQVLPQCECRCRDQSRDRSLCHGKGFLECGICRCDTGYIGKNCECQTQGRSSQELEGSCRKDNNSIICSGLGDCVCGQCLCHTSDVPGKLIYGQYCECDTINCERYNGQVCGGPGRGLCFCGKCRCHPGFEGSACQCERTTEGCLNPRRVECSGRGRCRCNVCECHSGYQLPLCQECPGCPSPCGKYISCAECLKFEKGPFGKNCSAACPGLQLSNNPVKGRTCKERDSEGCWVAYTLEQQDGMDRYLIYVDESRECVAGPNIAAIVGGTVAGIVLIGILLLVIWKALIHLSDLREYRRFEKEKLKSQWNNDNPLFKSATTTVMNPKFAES
UniProt O95373, whole entry, looked up: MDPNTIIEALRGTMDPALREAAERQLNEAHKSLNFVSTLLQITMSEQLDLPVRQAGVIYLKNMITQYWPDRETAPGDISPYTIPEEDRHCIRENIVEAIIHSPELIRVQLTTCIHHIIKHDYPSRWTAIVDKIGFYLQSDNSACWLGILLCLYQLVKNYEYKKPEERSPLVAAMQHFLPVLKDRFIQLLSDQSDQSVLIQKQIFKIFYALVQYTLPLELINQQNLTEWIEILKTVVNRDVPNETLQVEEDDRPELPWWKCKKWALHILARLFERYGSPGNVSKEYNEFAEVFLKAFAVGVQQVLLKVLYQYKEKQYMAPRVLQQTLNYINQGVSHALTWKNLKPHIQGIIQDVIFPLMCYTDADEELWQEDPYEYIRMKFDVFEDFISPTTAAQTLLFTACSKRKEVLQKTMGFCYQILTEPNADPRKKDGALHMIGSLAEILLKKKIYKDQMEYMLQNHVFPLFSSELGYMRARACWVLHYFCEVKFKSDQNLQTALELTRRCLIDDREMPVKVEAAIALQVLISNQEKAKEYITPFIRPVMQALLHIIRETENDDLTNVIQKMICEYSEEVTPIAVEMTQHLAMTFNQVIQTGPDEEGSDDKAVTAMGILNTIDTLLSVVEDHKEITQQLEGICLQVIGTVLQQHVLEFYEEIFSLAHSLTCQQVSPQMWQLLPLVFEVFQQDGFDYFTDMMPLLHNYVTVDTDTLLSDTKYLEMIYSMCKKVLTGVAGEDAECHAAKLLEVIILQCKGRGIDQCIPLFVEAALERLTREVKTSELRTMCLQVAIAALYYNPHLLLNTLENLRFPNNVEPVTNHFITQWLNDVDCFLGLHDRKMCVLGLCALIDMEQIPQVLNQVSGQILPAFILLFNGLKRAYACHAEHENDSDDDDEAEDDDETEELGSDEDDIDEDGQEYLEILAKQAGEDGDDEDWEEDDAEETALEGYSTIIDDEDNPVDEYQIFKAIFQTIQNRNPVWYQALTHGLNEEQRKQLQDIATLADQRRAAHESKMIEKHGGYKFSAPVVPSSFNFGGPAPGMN
UniProt O00410: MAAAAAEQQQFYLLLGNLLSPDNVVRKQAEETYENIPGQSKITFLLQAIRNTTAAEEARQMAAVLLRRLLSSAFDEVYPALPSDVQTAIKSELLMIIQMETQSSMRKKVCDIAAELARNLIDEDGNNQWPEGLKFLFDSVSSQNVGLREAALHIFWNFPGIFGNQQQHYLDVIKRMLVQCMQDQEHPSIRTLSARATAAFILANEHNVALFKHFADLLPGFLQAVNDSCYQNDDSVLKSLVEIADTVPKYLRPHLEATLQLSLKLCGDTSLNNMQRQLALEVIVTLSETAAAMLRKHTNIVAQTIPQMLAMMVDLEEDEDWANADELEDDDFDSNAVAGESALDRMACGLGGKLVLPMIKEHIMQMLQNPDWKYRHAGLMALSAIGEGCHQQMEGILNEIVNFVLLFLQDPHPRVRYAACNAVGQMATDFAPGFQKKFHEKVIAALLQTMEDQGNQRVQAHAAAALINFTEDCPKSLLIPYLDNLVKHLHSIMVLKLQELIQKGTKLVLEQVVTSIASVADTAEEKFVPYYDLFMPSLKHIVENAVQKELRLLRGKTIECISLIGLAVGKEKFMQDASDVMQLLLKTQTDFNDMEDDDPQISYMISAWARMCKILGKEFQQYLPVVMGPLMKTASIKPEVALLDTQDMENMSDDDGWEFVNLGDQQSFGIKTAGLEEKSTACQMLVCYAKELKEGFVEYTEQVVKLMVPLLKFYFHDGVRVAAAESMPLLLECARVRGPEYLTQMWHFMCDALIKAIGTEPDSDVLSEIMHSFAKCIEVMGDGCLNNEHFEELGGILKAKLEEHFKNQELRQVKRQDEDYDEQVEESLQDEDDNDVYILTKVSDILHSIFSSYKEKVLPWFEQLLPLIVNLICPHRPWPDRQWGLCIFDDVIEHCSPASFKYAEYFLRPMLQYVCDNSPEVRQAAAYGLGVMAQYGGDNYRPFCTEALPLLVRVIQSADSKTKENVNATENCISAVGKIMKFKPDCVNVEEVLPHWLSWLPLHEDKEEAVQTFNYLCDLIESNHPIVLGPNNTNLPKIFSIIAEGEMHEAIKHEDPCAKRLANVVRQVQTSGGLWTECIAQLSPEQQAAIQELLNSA

The other results are listed elsewhere or left out.

Compound in this experiment: CC1Cc2ccccc2N1C(=O)C1CCCN(C1)C(=O)CCl (mixture of isomers) [TRIM25 ligand 11 (diastereomer mixture)]
Kind of experiment: probe-labelled cysteine peptide fold change vs DMSO (competition) (log2 fold change); higher = less target engagement (more negative = stronger competition). The note with it: THP-1, incubation time: 4 h.
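Note: competitive chemoproteomic profiling in live THP-1 cells with an iodoacetamide desthiobiotin (IA-DTB) probe, comparing probe-labelled peptide intensities in compound-treated cells against DMSO-treated controls.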

With “IREB2_P48200_720_CPSFFDK (UniProt P48200)”, the “probe-labelled cysteine peptide fold change” value runs as follows: (10 µM) -0.0311; (50 µM) -0.15.
As to “IRF2BP2_Q7Z5L9_16+19_QSCYLCDLPR (UniProt Q7Z5L9)”, the “probe-labelled cysteine peptide fold change” value (10 µM) was determined as 0.0224 and the “probe-labelled cysteine peptide fold change” value (50 µM) is -0.127.
For “IQGAP3_Q86VI3_74_LGHCFAPSVVPLKK (UniProt Q86VI3)”, the “probe-labelled cysteine peptide fold change” value was -0.126 (10 µM) and -0.078 (50 µM).
On the same counts, the results for “ITGAV_P06756_172_TVEYAPCR (UniProt P06756)” are -0.0412 and 0.00849.
“INTS5_Q6P9B9_58_CGLLLLR (UniProt Q6P9B9)”: the “probe-labelled cysteine peptide fold change” value (10 µM) was -0.00715 and the “probe-labelled cysteine peptide fold change” value (50 µM) was found to be 0.145.
Turning to “INTS5_Q6P9B9_485_NHVGELCGETLR (UniProt Q6P9B9)”, the “probe-labelled cysteine peptide fold change” value was -0.107 (10 µM) and 0.176 (50 µM).
“ITGB1_P05556_555_FCECDNFNCDR (UniProt P05556)”: the “probe-labelled cysteine peptide fold change” value (10 µM) was determined as 0.106 and the “probe-labelled cysteine peptide fold change” value (50 µM) came to 0.201.
With “ITGB2_P05107_481+483_NCECQTQGR (UniProt P05107)”, the “probe-labelled cysteine peptide fold change” value is, setting by setting: (10 µM) -0.00763; (50 µM) 0.153.
On the same counts, the results for “IPO7_O95373_477_ACWVLHYFCEVK (UniProt O95373)” are -0.454 and 0.416.
On the same counts, the results for “INPP5D_Q92835_736_CYATLK (UniProt Q92835)” are 0.0943 and 0.0324.
For “ITGAM_P11215_654_VCLHVQK (UniProt P11215)”, the “probe-labelled cysteine peptide fold change” value is -0.0105 (10 µM) and 0.0507 (50 µM).
“IPO11_Q9UI26_894_DCMLMSHLEEPK (UniProt Q9UI26)”: the “probe-labelled cysteine peptide fold change” value (10 µM) is -0.13 and the “probe-labelled cysteine peptide fold change” value (50 µM) was -0.393.
As to “IPO5_O00410_473_VQAHAAAALINFTEDCPK (UniProt O00410)”, the “probe-labelled cysteine peptide fold change” value is -0.0774 (10 µM) and 0.0903 (50 µM).
On the same counts, the results for “ITGB2_P05107_467_GFLECGICR (UniProt P05107)” are -0.0319 and 0.298.
For “INTS14_Q96SY0_464_ECTLLPETAHPDAAFQLTHAAQQLK (UniProt Q96SY0)”, the “probe-labelled cysteine peptide fold change” value runs as follows: (10 µM) -0.00928; (50 µM) 0.131.
With “ITGB2_P05107_286_CHLEDNLYK (UniProt P05107)”, the “probe-labelled cysteine peptide fold change” value is, setting by setting: (10 µM) 0.101; (50 µM) 0.0992.
On the same counts, the results for “INPP5D_Q92835_902_APPCSGSSITEIINPNYMGVGPFGPPMPLHVK (UniProt Q92835)” are -0.129 and -0.373.
With “ITGB2_P05107_420_VTATECIQEQSFVIR (UniProt P05107)”, the “probe-labelled cysteine peptide fold change” value is, setting by setting: (10 µM) 0.0878; (50 µM) 0.0923.
For “IPO5_O00410_1057_IFSIIAEGEMHEAIKHEDPCAKR (UniProt O00410)”, the “probe-labelled cysteine peptide fold change” value reads like this: (10 µM) -0.439; (50 µM) -0.361.
In the same order, the values of “IRF5_Q13568_44_KLFCIPWR (UniProt Q13568)” are -0.551 and -0.367.
On the same counts, the results for “IPO5_O00410_266_LCGDTSLNNMQR (UniProt O00410)” are -0.0465 and 0.182.
On to “IRF2BP1_Q8IU81_363_EPAPAEALPQQYPEPAPAALCGPPPR (UniProt Q8IU81)”, for which the “probe-labelled cysteine peptide fold change” value reads like this: (10 µM) 0.0731; (50 µM) -0.0622.
Regarding “IPO5_O00410_915_YAEYFLRPMLQYVCDNSPEVR (UniProt O00410)”, the “probe-labelled cysteine peptide fold change” value (10 µM) came to 0.119 and the “probe-labelled cysteine peptide fold change” value (50 µM) is -0.0734.
In the same order, the values of “INTS13_Q9NVM9_119_ADPECCSILHGLVAAVETLCK (UniProt Q9NVM9)” are 0.136 and 0.0582.
In the same order, the values of “IPO4_Q8TEX9_726_KAAHEALGQFCCALHK (UniProt Q8TEX9)” are -0.155 and 0.0591.
In the case of “INTS14_Q96SY0_171_LYIMCMANLEELQSTDSLECLER (UniProt Q96SY0)”, the “probe-labelled cysteine peptide fold change” value by setting is: (10 µM) -0.0852; (50 µM) -0.0827.
On the same counts, the results for “ITGB2_P05107_62_CDTRPQLLMR (UniProt P05107)” are -0.083 and -0.121.
On the same counts, the results for “IPO7_O95373_736_VLTGVAGEDAECHAAK (UniProt O95373)” are 0.25 and 0.0627.
For the target “IRAK4_Q9NWZ3_13_CLNVGLIR (UniProt Q9NWZ3)”, the “probe-labelled cysteine peptide fold change” value was -0.237 (10 µM) and -0.127 (50 µM).
On the same counts, the results for “INSR_P06213_196_TNCPATVINGQFVER (UniProt P06213)” are 0.0441 and 0.0234.
On the same counts, the results for “INPPL1_O15357_405_EAFCQLLQLMK (UniProt O15357)” are -0.09 and -0.0221.
“ITGB2_P05107_573+575_CHPGFEGSACQCER (UniProt P05107)”: the “probe-labelled cysteine peptide fold change” value is, setting by setting: (10 µM) -0.0805; (50 µM) 0.129.
On the same counts, the results for “IQGAP3_Q86VI3_646_GVVPDCANGYQR (UniProt Q86VI3)” are 0.0605 and -0.0575.
Regarding “IRF2BP2_Q7Z5L9_549_QQGASGEVYCPSGEK (UniProt Q7Z5L9)”, the “probe-labelled cysteine peptide fold change” value runs as follows: (10 µM) -0.0492; (50 µM) 0.0193.
On the same counts, the results for “IPO5_O00410_687_STACQMLVCYAK (UniProt O00410)” are -0.0159 and -0.01.
On the same counts, the results for “INTS10_Q9NVR2_169_RFPETVVQHGVGLGEALLEAETIEEQESPVNCFR (UniProt Q9NVR2)” are 0.0065 and -0.199.
As to “ITGB2_P05107_497_SSQELEGSCR (UniProt P05107)”, the “probe-labelled cysteine peptide fold change” value was 0.0344 (10 µM) and 0.0786 (50 µM).
As for “INTS8_Q75QN2_295_ELIAEIGSLSLHCTIDEK (UniProt Q75QN2)”, the “probe-labelled cysteine peptide fold change” value is, setting by setting: (10 µM) 0.322; (50 µM) -0.0734.
On the same counts, the results for “INTS3_Q68E01_843_EHPEALSCLLLQLR (UniProt Q68E01)” are 0.0972 and 0.175.
As to “IPO8_O15397_478_SCWVLHAFSSLK (UniProt O15397)”, the “probe-labelled cysteine peptide fold change” value is, setting by setting: (10 µM) 0.0123; (50 µM) 0.0629.
In the same order, the values of “INPP5D_Q92835_956_DSPLGPCR (UniProt Q92835)” are -0.0931 and -0.139.
On to “ITGB1_P05556_636_FQGQTCEMCQTCLGVCAEHK (UniProt P05556)”, for which the “probe-labelled cysteine peptide fold change” value reads like this: (10 µM) -0.103; (50 µM) 0.0466.
Consider “INTS11_Q5TA45_19_SCILVSIAGK (UniProt Q5TA45)”, for which the “probe-labelled cysteine peptide fold change” value was 0.0151 (10 µM) and 0.106 (50 µM).
